Where a name gives a salt, the structure may show the parent alone. Some of the results follow. Hit calls seldom repeat between salt and free forms of one compound.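 Kinases, fused to nanoluciferase, were expressed in K562 cells; luminescence was measured every 4 h from 2 to 18 h as percent of control (DMSO = 100%, positive control = 0%). A time point is decreased if signal falls significantly (2 sigma). Hits were called by the authors by a rule that is not shown; the count of time points alone does not decide it.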
Key:
Test in all cases: kinase-Nluc reporter destabilization hit call (1 = scored as downregulated) (binary); higher = compound decreases kinase abundance
Conditions in all cases: K562; 2-18 h
[1] = molecular target: IRAK3 (UniProt Q9Y616)
[2] = molecular target: JAK1 (UniProt P23458)
[3] = molecular target: LCK (UniProt P06239)
[4] = molecular target: LIMK1 (UniProt P53667)
[5] = molecular target: LIMK2 (UniProt P53671)
[6] = molecular target: LMTK2 (UniProt Q8IWU2)
[7] = molecular target: LYN (UniProt P07948)
[8] = molecular target: MAP2K1 (UniProt Q02750)
[9] = molecular target: MAP2K2 (UniProt P36507)
[10] = molecular target: MAP4K2 (UniProt Q12851)
[11] = molecular target: MAPK1 (UniProt P28482)
[12] = molecular target: MAPK4 (UniProt P31152)
[13] = molecular target: MAPKAPK2 (UniProt P49137)
[14] = molecular target: MKNK1 (UniProt Q9BUB5)
[15] = molecular target: NTRK2 (UniProt Q16620)
[16] = molecular target: NTRK3 (UniProt Q16288)
[17] = molecular target: PAK4 (UniProt O96013)
[18] = molecular target: PBK (UniProt Q96KB5)
[19] = molecular target: PDGFRB (UniProt P09619)
[20] = molecular target: PDK1 (UniProt Q15118)

Sequences of proteins named here, by UniProt entry; tags and fusion partners are left off. A change or cut given only in a name is not applied to a line headed by its entry.
UniProt Q9Y616: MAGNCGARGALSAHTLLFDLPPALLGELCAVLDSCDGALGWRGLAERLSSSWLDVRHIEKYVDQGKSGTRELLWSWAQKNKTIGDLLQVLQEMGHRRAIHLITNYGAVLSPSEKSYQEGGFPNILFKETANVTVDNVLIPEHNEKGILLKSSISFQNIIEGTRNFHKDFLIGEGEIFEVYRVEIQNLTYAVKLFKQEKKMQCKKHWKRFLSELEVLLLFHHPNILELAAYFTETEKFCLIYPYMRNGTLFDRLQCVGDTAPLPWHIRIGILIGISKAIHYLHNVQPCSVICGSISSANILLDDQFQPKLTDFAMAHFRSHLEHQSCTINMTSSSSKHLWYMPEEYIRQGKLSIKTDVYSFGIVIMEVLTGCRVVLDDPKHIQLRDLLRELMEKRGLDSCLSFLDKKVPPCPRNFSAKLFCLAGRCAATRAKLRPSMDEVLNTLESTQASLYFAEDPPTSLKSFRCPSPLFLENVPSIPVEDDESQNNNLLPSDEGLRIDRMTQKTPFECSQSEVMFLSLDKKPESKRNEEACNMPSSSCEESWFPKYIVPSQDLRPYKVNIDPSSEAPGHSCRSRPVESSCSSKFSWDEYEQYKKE
UniProt P53667: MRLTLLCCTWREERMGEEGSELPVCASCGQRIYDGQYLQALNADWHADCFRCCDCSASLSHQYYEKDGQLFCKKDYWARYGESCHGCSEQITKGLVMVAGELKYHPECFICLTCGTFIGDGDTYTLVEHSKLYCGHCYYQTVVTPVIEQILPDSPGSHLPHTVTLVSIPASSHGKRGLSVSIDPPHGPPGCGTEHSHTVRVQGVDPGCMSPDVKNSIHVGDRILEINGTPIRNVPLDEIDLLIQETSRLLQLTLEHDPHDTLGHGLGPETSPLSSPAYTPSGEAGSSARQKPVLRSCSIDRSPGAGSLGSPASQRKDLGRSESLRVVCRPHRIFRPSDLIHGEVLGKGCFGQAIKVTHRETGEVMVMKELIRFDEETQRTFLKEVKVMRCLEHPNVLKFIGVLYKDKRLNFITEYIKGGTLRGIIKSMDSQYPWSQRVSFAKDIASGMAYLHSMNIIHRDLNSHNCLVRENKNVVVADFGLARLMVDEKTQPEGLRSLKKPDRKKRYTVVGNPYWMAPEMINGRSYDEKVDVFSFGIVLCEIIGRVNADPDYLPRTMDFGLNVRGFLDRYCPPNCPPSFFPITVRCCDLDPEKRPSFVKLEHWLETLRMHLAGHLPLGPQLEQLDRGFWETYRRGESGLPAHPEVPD
UniProt P53671: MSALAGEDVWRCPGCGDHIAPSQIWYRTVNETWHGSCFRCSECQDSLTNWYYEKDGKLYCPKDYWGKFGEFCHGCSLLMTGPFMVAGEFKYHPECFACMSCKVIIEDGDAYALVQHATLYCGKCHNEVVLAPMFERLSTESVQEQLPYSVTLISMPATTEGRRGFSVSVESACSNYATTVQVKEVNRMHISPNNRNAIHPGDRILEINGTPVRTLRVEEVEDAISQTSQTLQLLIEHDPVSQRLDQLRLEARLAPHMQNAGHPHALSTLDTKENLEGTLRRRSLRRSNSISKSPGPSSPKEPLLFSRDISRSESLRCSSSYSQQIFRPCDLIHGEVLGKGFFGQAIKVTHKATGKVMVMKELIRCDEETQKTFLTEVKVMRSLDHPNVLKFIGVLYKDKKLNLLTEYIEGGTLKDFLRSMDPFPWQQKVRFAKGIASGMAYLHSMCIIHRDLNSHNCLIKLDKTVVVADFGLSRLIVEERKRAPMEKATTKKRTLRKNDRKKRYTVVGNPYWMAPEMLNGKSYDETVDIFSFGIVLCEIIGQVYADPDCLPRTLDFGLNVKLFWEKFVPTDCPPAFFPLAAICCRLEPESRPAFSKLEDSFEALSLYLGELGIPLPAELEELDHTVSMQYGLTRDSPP
UniProt Q12851: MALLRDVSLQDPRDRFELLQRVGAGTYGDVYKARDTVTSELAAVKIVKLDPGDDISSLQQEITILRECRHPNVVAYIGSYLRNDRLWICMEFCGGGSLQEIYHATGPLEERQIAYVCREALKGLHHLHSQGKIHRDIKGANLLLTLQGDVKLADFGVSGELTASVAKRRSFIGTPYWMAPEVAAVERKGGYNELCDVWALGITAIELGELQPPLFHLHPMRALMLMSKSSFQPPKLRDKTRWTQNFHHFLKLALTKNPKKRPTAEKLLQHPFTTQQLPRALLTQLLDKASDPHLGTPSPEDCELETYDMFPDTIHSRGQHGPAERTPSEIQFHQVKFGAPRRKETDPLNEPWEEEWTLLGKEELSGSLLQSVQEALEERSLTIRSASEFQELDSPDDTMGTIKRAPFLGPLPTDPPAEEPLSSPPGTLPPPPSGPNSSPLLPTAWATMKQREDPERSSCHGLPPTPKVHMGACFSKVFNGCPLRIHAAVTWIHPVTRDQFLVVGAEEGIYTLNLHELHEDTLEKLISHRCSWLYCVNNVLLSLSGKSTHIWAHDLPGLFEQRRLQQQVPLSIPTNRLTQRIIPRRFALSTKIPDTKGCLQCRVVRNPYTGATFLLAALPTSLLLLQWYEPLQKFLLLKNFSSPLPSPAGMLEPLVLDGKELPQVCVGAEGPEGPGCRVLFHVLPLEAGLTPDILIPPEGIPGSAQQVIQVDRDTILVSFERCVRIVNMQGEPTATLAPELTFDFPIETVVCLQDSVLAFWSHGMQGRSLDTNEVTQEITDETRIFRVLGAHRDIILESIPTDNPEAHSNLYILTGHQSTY
UniProt P31152, whole entry: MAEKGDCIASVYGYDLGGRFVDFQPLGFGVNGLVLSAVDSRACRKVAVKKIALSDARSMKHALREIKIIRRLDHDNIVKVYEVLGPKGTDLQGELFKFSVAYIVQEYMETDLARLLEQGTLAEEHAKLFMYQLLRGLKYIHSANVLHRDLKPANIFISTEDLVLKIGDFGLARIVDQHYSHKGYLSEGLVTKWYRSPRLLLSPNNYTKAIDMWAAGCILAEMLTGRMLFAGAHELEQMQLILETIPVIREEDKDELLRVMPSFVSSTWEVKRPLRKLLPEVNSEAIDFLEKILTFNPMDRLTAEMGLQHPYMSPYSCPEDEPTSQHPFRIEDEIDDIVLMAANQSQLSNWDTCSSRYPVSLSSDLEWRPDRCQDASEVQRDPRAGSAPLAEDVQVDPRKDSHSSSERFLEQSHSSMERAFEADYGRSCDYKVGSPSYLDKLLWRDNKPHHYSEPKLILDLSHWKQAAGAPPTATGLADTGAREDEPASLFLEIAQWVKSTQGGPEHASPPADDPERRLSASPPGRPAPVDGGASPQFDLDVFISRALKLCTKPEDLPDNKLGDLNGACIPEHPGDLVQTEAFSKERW
UniProt P49137, whole entry, looked up: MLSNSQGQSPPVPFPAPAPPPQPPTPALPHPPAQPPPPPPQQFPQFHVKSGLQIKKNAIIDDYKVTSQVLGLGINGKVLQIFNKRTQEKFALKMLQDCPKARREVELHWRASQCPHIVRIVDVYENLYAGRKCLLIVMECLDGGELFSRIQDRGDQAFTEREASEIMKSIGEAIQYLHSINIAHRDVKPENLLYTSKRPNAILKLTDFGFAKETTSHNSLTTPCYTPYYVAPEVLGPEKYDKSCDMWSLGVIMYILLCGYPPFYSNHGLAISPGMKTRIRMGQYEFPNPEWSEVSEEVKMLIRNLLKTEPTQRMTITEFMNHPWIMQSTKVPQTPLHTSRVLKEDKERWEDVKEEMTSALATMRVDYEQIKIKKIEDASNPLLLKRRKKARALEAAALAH
UniProt Q9BUB5: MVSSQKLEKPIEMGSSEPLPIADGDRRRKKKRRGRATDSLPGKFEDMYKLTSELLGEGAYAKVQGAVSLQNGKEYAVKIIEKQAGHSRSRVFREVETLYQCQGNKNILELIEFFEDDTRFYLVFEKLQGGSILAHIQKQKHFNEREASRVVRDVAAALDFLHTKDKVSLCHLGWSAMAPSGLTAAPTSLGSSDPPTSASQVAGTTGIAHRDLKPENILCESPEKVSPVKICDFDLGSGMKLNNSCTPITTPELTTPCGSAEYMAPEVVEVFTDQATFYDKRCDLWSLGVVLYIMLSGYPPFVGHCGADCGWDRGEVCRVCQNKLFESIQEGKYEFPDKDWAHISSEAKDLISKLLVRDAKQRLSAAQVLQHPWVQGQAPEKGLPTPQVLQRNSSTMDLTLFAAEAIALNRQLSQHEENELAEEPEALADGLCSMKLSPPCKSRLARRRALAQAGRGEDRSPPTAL
UniProt Q16288, whole entry, looked up: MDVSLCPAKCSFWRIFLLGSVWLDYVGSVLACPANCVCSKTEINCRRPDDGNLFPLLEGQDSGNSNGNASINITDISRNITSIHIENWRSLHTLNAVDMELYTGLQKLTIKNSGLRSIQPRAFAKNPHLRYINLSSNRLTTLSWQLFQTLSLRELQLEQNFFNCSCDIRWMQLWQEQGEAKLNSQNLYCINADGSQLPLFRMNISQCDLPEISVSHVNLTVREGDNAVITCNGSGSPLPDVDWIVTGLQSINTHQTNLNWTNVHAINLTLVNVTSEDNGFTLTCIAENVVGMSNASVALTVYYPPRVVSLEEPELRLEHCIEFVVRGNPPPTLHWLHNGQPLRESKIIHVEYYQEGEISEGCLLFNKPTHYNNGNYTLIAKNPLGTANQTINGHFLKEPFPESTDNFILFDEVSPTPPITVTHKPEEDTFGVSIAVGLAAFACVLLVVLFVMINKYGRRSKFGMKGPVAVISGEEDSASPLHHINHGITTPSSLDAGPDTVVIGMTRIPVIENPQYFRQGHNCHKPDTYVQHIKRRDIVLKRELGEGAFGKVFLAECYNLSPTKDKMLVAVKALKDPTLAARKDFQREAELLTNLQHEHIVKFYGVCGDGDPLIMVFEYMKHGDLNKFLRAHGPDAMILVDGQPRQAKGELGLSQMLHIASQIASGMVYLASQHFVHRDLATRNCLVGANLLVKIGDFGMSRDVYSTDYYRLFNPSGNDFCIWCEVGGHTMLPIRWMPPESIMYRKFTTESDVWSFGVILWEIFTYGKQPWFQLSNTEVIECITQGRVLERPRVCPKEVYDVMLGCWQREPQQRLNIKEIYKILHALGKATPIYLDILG
UniProt O96013: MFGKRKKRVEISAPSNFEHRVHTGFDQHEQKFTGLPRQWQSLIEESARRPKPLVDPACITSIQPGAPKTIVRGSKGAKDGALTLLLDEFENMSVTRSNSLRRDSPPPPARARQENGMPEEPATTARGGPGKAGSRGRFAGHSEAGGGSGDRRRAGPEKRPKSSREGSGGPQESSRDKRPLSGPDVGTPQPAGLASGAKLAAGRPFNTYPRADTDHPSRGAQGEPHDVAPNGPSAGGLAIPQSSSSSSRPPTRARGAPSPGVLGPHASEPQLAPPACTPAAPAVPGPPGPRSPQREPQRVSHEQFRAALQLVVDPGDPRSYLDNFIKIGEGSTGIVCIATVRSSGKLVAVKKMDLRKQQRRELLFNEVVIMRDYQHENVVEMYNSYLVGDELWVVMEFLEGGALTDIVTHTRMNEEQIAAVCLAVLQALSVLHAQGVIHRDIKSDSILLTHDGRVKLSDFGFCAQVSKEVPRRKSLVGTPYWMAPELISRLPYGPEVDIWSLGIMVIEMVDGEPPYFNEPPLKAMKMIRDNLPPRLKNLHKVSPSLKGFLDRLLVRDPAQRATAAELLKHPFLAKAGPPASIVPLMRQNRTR
UniProt Q96KB5: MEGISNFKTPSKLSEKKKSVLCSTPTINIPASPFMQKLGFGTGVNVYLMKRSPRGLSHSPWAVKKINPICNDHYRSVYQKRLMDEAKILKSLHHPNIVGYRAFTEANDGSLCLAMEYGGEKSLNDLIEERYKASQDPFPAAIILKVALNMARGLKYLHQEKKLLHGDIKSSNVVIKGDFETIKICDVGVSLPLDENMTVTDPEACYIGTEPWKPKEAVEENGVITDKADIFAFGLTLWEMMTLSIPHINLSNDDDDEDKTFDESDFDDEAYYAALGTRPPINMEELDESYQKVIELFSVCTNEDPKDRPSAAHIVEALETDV
UniProt Q15118, whole entry, looked up: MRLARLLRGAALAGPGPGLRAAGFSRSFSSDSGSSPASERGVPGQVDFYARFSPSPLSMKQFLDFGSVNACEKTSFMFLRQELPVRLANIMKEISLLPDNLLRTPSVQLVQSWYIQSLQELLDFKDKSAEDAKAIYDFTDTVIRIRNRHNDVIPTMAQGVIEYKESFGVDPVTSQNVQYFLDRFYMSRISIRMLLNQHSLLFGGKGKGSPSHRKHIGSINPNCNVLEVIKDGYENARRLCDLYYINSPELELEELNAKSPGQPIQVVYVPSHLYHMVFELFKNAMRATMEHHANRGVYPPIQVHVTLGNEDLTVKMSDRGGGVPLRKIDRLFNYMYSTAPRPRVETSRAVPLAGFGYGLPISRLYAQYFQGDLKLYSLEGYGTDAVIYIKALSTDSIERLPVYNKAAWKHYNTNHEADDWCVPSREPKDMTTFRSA

Row | SMILES | kinase-Nluc reporter destabilization hit call [1] | kinase-Nluc reporter destabilization hit call [2] | kinase-Nluc reporter destabilization hit call [3] | kinase-Nluc reporter destabilization hit call [4] | kinase-Nluc reporter destabilization hit call [5] | kinase-Nluc reporter destabilization hit call [6] | kinase-Nluc reporter destabilization hit call [7] | kinase-Nluc reporter destabilization hit call [8] | kinase-Nluc reporter destabilization hit call [9] | kinase-Nluc reporter destabilization hit call [10] | kinase-Nluc reporter destabilization hit call [11] | kinase-Nluc reporter destabilization hit call [12] | kinase-Nluc reporter destabilization hit call [13] | kinase-Nluc reporter destabilization hit call [14] | kinase-Nluc reporter destabilization hit call [15] | kinase-Nluc reporter destabilization hit call [16] | kinase-Nluc reporter destabilization hit call [17] | kinase-Nluc reporter destabilization hit call [18] | kinase-Nluc reporter destabilization hit call [19] | kinase-Nluc reporter destabilization hit call [20]
1 | C=C(CC[C@@H](C(=O)O)[C@H]1[C@H](O)C[C@@]2(C)C3=C(CC[C@]12C)[C@@]1(C)CC[C@H](OC(C)=O)C(C)(C)[C@@H]1CC3)C(C)C [Pachymic acid] (10 µM) | inactive: 0 | inactive: 0 | inactive: 0 | inactive: 0 | inactive: 0 | inactive: 0 | inactive: 0 | inactive: 0 | inactive: 0 | inactive: 0 | inactive: 0 | inactive: 0 | inactive: 0 | inactive: 0 | inactive: 0 | inactive: 0 | inactive: 0 | inactive: 0 | inactive: 0 | inactive: 0
2 | Cc1ccc(CNc2ncnc3ccc(-c4ccc(CO)o4)cc23)o1 (10 µM) | inactive: 0 | inactive: 0 | inactive: 0 | inactive: 0 | inactive: 0 | inactive: 0 | inactive: 0 | inactive: 0 | inactive: 0 | inactive: 0 | inactive: 0 | inactive: 0 | inactive: 0 | inactive: 0 | inactive: 0 | inactive: 0 | inactive: 0 | inactive: 0 | inactive: 0 | inactive: 0
3 | CNC(=O)c1c(F)cccc1Nc1nc(Nc2cc3c(cc2OC)CCN3C(=O)CN(C)C)nc2[nH]ccc12 (10 µM) | inactive: 0 | inactive: 0 | inactive: 0 | inactive: 0 | inactive: 0 | inactive: 0 | inactive: 0 | inactive: 0 | inactive: 0 | inactive: 0 | inactive: 0 | inactive: 0 | inactive: 0 | inactive: 0 | inactive: 0 | inactive: 0 | inactive: 0 | inactive: 0 | inactive: 0 | inactive: 0
4 | N#Cc1c(C2CCNCC2)cc(-c2c(O)cccc2OCC2CC2)nc1N [ACHP (Hydrochloride)] (10 µM) | inactive: 0 | inactive: 0 | inactive: 0 | inactive: 0 | inactive: 0 | inactive: 0 | inactive: 0 | inactive: 0 | inactive: 0 | inactive: 0 | inactive: 0 | inactive: 0 | inactive: 0 | inactive: 0 | inactive: 0 | inactive: 0 | inactive: 0 | inactive: 0 | inactive: 0 | inactive: 0
5 | Cc1ccc(OCCSc2ncccn2)c(Br)c1 [ZLN024 (hydrochloride)] (10 µM) | inactive: 0 | inactive: 0 | inactive: 0 | inactive: 0 | inactive: 0 | inactive: 0 | inactive: 0 | inactive: 0 | inactive: 0 | inactive: 0 | inactive: 0 | inactive: 0 | inactive: 0 | inactive: 0 | inactive: 0 | inactive: 0 | inactive: 0 | inactive: 0 | inactive: 0 | inactive: 0
6 | Cc1ccccc1-c1c2nccc(-c3ccc(F)cc3F)c2cc[n+]1[O-] (10 µM) | inactive: 0 | inactive: 0 | inactive: 0 | inactive: 0 | inactive: 0 | inactive: 0 | inactive: 0 | inactive: 0 | inactive: 0 | inactive: 0 | inactive: 0 | inactive: 0 | inactive: 0 | inactive: 0 | inactive: 0 | inactive: 0 | inactive: 0 | inactive: 0 | inactive: 0 | inactive: 0
7 | c1cncc(CN2CCC(n3ncc4c(N5CCOCC5)nc(-c5ccc6[nH]ccc6c5)nc43)CC2)c1 (10 µM) | inactive: 0 | inactive: 0 | inactive: 0 | active: 1 | inactive: 0 | inactive: 0 | inactive: 0 | inactive: 0 | inactive: 0 | inactive: 0 | inactive: 0 | inactive: 0 | inactive: 0 | inactive: 0 | inactive: 0 | inactive: 0 | inactive: 0 | inactive: 0 | inactive: 0 | inactive: 0
8 | Cc1c(-c2c(F)cc(C(N)=O)c3[nH]c4c(c23)CC[C@H](C(C)(C)O)C4)cccc1-n1c(=O)c2cccc(F)c2n(C)c1=O (2.5 µM) | inactive: 0 | inactive: 0 | inactive: 0 | inactive: 0 | inactive: 0 | inactive: 0 | inactive: 0 | inactive: 0 | inactive: 0 | inactive: 0 | inactive: 0 | inactive: 0 | inactive: 0 | inactive: 0 | inactive: 0 | inactive: 0 | inactive: 0 | inactive: 0 | inactive: 0 | inactive: 0
9 | C=CC(=O)Nc1cccc(Nc2nc(Nc3ccc(N4CCN(C(C)=O)CC4)cc3OC)ncc2C(F)(F)F)c1 [Rociletinib] (10 µM) | inactive: 0 | inactive: 0 | inactive: 0 | inactive: 0 | inactive: 0 | inactive: 0 | inactive: 0 | inactive: 0 | inactive: 0 | inactive: 0 | inactive: 0 | inactive: 0 | inactive: 0 | inactive: 0 | inactive: 0 | inactive: 0 | inactive: 0 | inactive: 0 | inactive: 0 | inactive: 0

Reference: the supplement of paper PMC12823440, “Inhibitors supercharge kinase turnover through native proteolytic circuits” (Nature, 2025)
